# Among all 300,000 compounds or so, about 3,700 (1.2%) were called active. The shares of active, inactive and inconclusive entries below differ from those in the screen. The call rests on the fitted dose curve; tested in HEK293 cells. Potencies beside an inconclusive call are fits to weak or partial responses and may not hold up.
# Assay: qHTS for Inhibitors of binding or entry into cells for Lassa Virus; further: nearly all actives have a fitted effect of over 50% in size
# Details: Lassa virus pseudotype entry inhibition, cell reporter; series mostly up to 37.9 µM
# Potency means the concentration at half of the fitted maximal effect.
row,Structure (SMILES),Potency
1,Cc1ccc(S(=O)(=O)N2CCC(=O)N(CCOCc3ccc(Cl)cc3)CC2)cc1,"inconclusive: 18.4 µM [inhibitor, partial curve, poor fit]"
2,O=C(OCC#CCSc1nc2ccccc2o1)c1cc2ccccc2o1,inactive
3,Cc1ccc(NC(=O)Cn2c(=S)[nH]c3ccccc32)cc1,inactive
4,CCc1ccc(C2c3c(oc4ccc(F)cc4c3=O)C(=O)N2CCc2ccc(OC)cc2)cc1 (stereo not given),inactive
5,Cc1ccc(-n2nc3ccc(N)cc3n2)cc1,active: 11.2 µM
6,Cc1cccc(N2CCN(C(=O)c3cnn(-c4ccccc4Cl)c3C3CCN(C(=O)OC(C)(C)C)CC3)CC2C)c1 (stereo not given),"inconclusive: 1.78 µM [inhibitor, full curve, poor fit]"
7,C/C(=C\C(=O)O)C(=O)Nc1nccs1,inactive
8,CCN(CC)S(=O)(=O)c1cc(NC(=O)CN2C(=O)NC(C)(c3ccccc3)C2=O)ccc1C (stereo not given),"inconclusive: 35.5 µM [inhibitor, single point]"
9,CC(=O)Nc1ccc(/C=C/c2nc3ccccc3[nH]c2=O)cc1,"inconclusive: 35.5 µM [activator, single point]"
10,CCN1CCc2c(sc(NC(=O)CN3C(=O)c4ccccc4C3=O)c2C(N)=O)C1,inactive
11,COc1ccc(CNC(=O)CN(C(=O)CCC(=O)Nc2ccccn2)c2ccc3c(c2)OCO3)cc1,"inconclusive: 6.31 µM [inhibitor, single point]"
12,COc1cccc2cc(/C(=N/O)c3ccc(Br)cc3)oc12,inactive
13,CC(C)N(C(=O)CSc1nnc(C2CC2)n1C1CC1)c1ccccc1,inactive
14,O=C(Nc1ccccc1)N(Cc1c[nH]c2ccccc12)C1CCCCCC1,inactive
15,CCN(CC)c1ccc(CNCCc2ccc(F)cc2)cc1,"inconclusive: 22.4 µM [inhibitor, single point]"
16,CCN(c1ccccc1)S(=O)(=O)c1nnc(NC(=O)c2ccccc2)s1,"inconclusive: 3.16 µM [activator, single point]"
17,Cc1cccc(CN2CCN(Cc3ccc(Cl)cc3)CC2)c1,"inconclusive: 35.5 µM [inhibitor, single point]"
18,Cc1ccc(OCCn2c(C)nc3ccccc32)cc1,"inconclusive: 1.58 µM [inhibitor, partial curve, poor fit]"
19,CC(C)(CSc1ccccn1)NS(=O)(=O)c1ccc(Cl)cc1,"inconclusive: 6.31 µM [activator, single point]"
20,O=C(c1ccc(Cl)cc1)C(CN1CCCCC1)c1ccccc1 (stereo not given),"inconclusive: 35.5 µM [inhibitor, single point]"
21,COC(=O)c1ccc(OCC(=O)c2ccc(C)c(C)c2)cc1,inactive
22,Cc1ccc(CC(=O)Nc2ccc3c(c2)N(C)C(=O)c2ccccc2S3)cc1,"inconclusive: 10 µM [inhibitor, partial curve, poor fit]"
23,COc1cc(/C=N/NC(=O)C2c3ccccc3Oc3ccccc32)ccc1O,inactive

row,Structure (SMILES),Potency
1,Cc1ccc(OCCOc2ccc(Br)cc2)c([N+](=O)[O-])n1,"inconclusive: 4.61 µM [activator, single point]"
2,CCC(=O)Nc1ccc(NC(=O)c2ccco2)c(OC)c1,"inconclusive: 22.4 µM [activator, single point]"
3,Cc1cc(NC(=O)c2cc(-c3ccncc3)nc3ccccc23)ccc1Br,"inconclusive: 35.5 µM [inhibitor, single point]"
4,COc1ccc(C2NC(=O)NC(C)=C2C(=O)Nc2ccccc2)cc1OC (stereo not given),inactive
5,Cc1cccc(NC(=O)c2ccccn2)c1C,"inconclusive: 2.59 µM [activator, single point]"
6,CNc1cc(N2CCCC2)ccc1[N+](=O)[O-],inactive
7,CCOC(=O)C(=O)Nc1nc(-c2ccc3c(c2)CCN3C(=O)C2CC2)c(C)s1,inactive
8,Cc1ccc(/C=N/NC(=O)C2CC(=O)N(c3ccccc3)C2)s1 (stereo not given),"inconclusive: 7.31 µM [inhibitor, partial curve, poor fit]"
9,O=C(Nc1ccon1)c1ccc(Cl)s1,inactive
10,COc1ccc(NC(=O)c2ccc3ncsc3c2)c2ccccc12,inactive
11,CN1CCN(c2nc(-c3cccc([N+](=O)[O-])c3)nc3ccccc23)CC1,"inconclusive: 1.41 µM [inhibitor, partial curve, poor fit]"
12,COc1cc2c(cc1OC)n(CC(=O)c1cccc(Cl)c1)c(=O)n1nc(CCn3nc(C)cc3C)nc21,"inconclusive: 5.01 µM [inhibitor, single point]"
13,COC(=O)c1ccc(-c2ccc(Cl)cc2)nc1C,"inconclusive: 2.59 µM [activator, partial curve, poor fit]"
14,CCOc1ccccc1C(=O)N(Cc1cc(OC)c(OC)c(OC)c1)c1ccccn1,"inconclusive: 5.62 µM [inhibitor, partial curve, poor fit]"
15,CCCN(Cc1nnc(-c2ccccc2Cl)o1)C(=O)c1cc2ccccc2o1,"inconclusive: 35.5 µM [inhibitor, single point]"
16,Cc1ccc(C(C(=O)NCc2ccccc2)N(Cc2ccco2)C(=O)c2snc(C(N)=O)c2N)o1 (stereo not given),"inconclusive: 7.08 µM [inhibitor, partial curve, poor fit]"
17,CCCn1c(SCc2nc(-c3ccccc3OCC)no2)nnc1-c1ccc(Cl)cc1,"inconclusive: 7.94 µM [inhibitor, partial curve, poor fit]"
18,O=C(O)/C=C/C(=O)Nc1ccccc1-c1ccccc1NC(=O)/C=C/C(=O)O,"inconclusive: 5.62 µM [inhibitor, single point]"
19,O=C(Nc1ccccc1)N(C1=NCCC1)c1ccccc1,inactive
20,CC(=C1C(=O)c2ccccc2C1=O)N1CCC(C(N)=O)(N2CCCCC2)CC1,"inconclusive: 0.146 µM [activator, full curve, poor fit]"
21,COc1ccc2c(c1OC)C(=O)OC2Nc1nc(-c2ccccc2)cs1 (stereo not given),"inconclusive: 17.8 µM [inhibitor, single point]"
22,Cc1c(NS(=O)(=O)c2ccc3[nH]c(=O)[nH]c3c2)c(=O)n(-c2ccccc2)n1C,"inconclusive: 18.3 µM [activator, single point]"

# Eleven entries from above, sorted by length of the SMILES, high to low.
row,Structure (SMILES),Potency
12,COc1cc2c(cc1OC)n(CC(=O)c1cccc(Cl)c1)c(=O)n1nc(CCn3nc(C)cc3C)nc21,"inconclusive: 5.01 µM [inhibitor, single point]"
16,Cc1ccc(C(C(=O)NCc2ccccc2)N(Cc2ccco2)C(=O)c2snc(C(N)=O)c2N)o1 (stereo not given),"inconclusive: 7.08 µM [inhibitor, partial curve, poor fit]"
22,Cc1c(NS(=O)(=O)c2ccc3[nH]c(=O)[nH]c3c2)c(=O)n(-c2ccccc2)n1C,"inconclusive: 18.3 µM [activator, single point]"
11,CN1CCN(c2nc(-c3cccc([N+](=O)[O-])c3)nc3ccccc23)CC1,"inconclusive: 1.41 µM [inhibitor, partial curve, poor fit]"
17,CCCn1c(SCc2nc(-c3ccccc3OCC)no2)nnc1-c1ccc(Cl)cc1,"inconclusive: 7.94 µM [inhibitor, partial curve, poor fit]"
4,COc1ccc(C2NC(=O)NC(C)=C2C(=O)Nc2ccccc2)cc1OC (stereo not given),inactive
8,Cc1ccc(/C=N/NC(=O)C2CC(=O)N(c3ccccc3)C2)s1 (stereo not given),"inconclusive: 7.31 µM [inhibitor, partial curve, poor fit]"
1,Cc1ccc(OCCOc2ccc(Br)cc2)c([N+](=O)[O-])n1,"inconclusive: 4.61 µM [activator, single point]"
10,COc1ccc(NC(=O)c2ccc3ncsc3c2)c2ccccc12,inactive
19,O=C(Nc1ccccc1)N(C1=NCCC1)c1ccccc1,inactive
9,O=C(Nc1ccon1)c1ccc(Cl)s1,inactive
